Reference: PubChem BioAssay AID504808 (Drosophila RNAi Screening Center, 2011)
Test: 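Genes whose loss lifts activity of an E2F-responsive reporter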 (primary screen). System: Drosophila S2 cells. Reagents: long dsRNA against Drosophila genes. Read-out: 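Firefly luciferase driven by E2F sites, normalised to Renilla luciferase on the same minimal promoter, measured by plate reader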. Reading the numbers: E2F firefly: higher = more E2F reporter activity; Renilla normaliser: higher = more normaliser reporter signal. Active means: 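a knock-down counted as active when the firefly/Renilla E2F signal rose above 50%, a threshold chosen arbitrarily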.
The deposit covers about 21,000 reagents; this is a random part of those with a known target gene and a result. Of all reagents, 18 (0.084%) were called active. 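Raw counts without plate normalisation, one of two replicates; the ratio scores behind the calls were not deposited.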 Unmarked entries are inactive. A plus sign joins genes that one reagent is predicted to hit. Not given: the amount of reagent, the time to read-out.

no.	gene	amplicon	E2F firefly, rep 1	Renilla normaliser, rep 1
1	Mco3	DRSC15926	1.22e5	6572
2	CG33969 + fbl	DRSC11886	1.48e5	7249
3	Sam-S	DRSC00758	1.01e5	3398
4	TBC1D23	DRSC00657	1.62e5	5368
5	CG34178 + CG34177	DRSC00351	1.47e5	4986
6	CG14752	DRSC06488	1.39e5	4930
7	CG12229	DRSC09868	1.60e5	7131
8	Octbeta2R	DRSC15350	1.34e5	6395
9	Octbeta2R	DRSC16165	1.42e5	7550
10	Tssk	DRSC14784	1.28e5	7689
11	FipoQ	DRSC15413	1857	1060
12	wit	DRSC08741	76162	3955
13	CG4641 (retired record)	DRSC10439	78221	3320
14	Mmp1	DRSC04493	1.11e5	4573
15	CG4009	DRSC15536	1.10e5	6376
16	hd	DRSC12316	1.69e5	6249
17	CG33758	DRSC05158	1.39e5	6798
18	CG8136	DRSC16385	1.29e5	6556
19	CG11658	DRSC09852	1.17e5	6423
20	Cpr76Ba	DRSC11060	1.23e5	6524
21	unc79	DRSC15746	70847	3628
22	Septin5	DRSC06843	2931	223
23	exd	DRSC20330	1.50e5	7412
24	red	DRSC14477	54641	3710
25	pnut	DRSC07666	2994	208
26	CG31213	DRSC14312	1.26e5	7597
27	CG31213	DRSC15647	1.28e5	6120
28	CG15170	DRSC02471	1.09e5	4228
29	CG42748	DRSC03712	98441	4340
30	CG42748	DRSC03713	84951	3574
31	CG42748	DRSC03734	1.17e5	4097
32	CG31686 (retired record)	DRSC00102	1.26e5	5249
33	azot	DRSC06051	1.47e5	4860
34	CG32202	DRSC09989	1.52e5	8243
35	CG13392	DRSC02262	1.47e5	168
36	CG17168	DRSC20904	1.16e5	6968
37	CG7058	DRSC20021	1.36e5	5472
38	eIF1	DRSC08520	1.07e5	4618
39	Pen	DRSC03396	91344	3617
40	sit	DRSC15760	90428	5984
41	Dlg5	DRSC02964	73351	2855
42	CG5742	DRSC06949	77832	3149
43	GCC185	DRSC15493	1.13e5	5212
44	CG15643	DRSC19679	2.39e5	7477
45	CTCF	DRSC11004	72341	4099
46	CG11029	DRSC02119	1.28e5	5119
47	Prosap	DRSC06382	1.03e5	4381
48	Prosap	DRSC07081	2844	94
49	myo	DRSC17174	1819	796
50	spdi	DRSC18487	1907	936
51	spdi	DRSC18488	62278	3855
52	TpnC25D	DRSC02965	1.46e5	5720
53	Syx17	DRSC08591	82507	3879
54	CG42724	DRSC12567	63491	4077
55	CG1236	DRSC12203	72245	3533
56	GstD4	DRSC16685	1.66e5	7146
57	CG30114	DRSC05707	1.60e5	5140
58	mtg	DRSC16256	1.31e5	6724
59	CG3061	DRSC15460	98319	5538
60	opm	DRSC20141	8230	796
61	CG31710	DRSC01089	1.31e5	6078
62	BHD	DRSC11017	84391	3721
63	Phyhd1	DRSC14911	1.25e5	5851
64	Ddx56	DRSC20567	1.26e5	9307
65	CG30151	DRSC05888	1.58e5	5555
66	eIF4E1	DRSC11342	1.12e5	205
67	mRpL44	DRSC12306	75430	3593
68	CG30403	DRSC03889	46851	4158
69	larp	DRSC14728	1.08e5	5823
70	larp	DRSC16984	1.07e5	7269
71	Nepl6	DRSC03242	46577	3682
72	osa	DRSC17022	66247	4060
73	Hsp70Bc	DRSC16053	1.11e5	7273
74	CG1468	DRSC17946	7254	764
75	CG12849	DRSC04129	1.20e5	4516
76	CG17343	DRSC02606	1.07e5	4016
77	CarT	DRSC03196	75063	3565
78	CG16723	DRSC15138	1.03e5	5450
79	CG8100	DRSC10961	1.67e5	7109
80	CG8051	DRSC20077	1.36e5	352
81	Vta1	DRSC08604	98563	4672
82	CG33270	DRSC10584	56421	5521
83	CG5569	DRSC04514	97989	4782
84	Akap200	DRSC01864	1.06e5	3624
